## Screening data, single-dose tests

From ChEMBL document CHEMBL3988442, “University of Dundee, Small-Polar-MMV Screening Library” (2021).

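Whole-parasite assay of Trypanosoma brucei over 72 hours; the read-out is not stated. Compounds at 30 µM. Direction is inferred from retests: higher values go with stronger inhibition. Values scatter widely below zero; nearly all retest evidence comes from the higher of the two concentrations used. About 64,000 compounds were tested under these conditions; 1.5% (about 940) showed 50% or more at least once.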

The filed quantity is “Percent Effect” (%).
The controls that fix the scale are not given in the record; negative values are as filed.
This is an unselected part of the compounds tested.

SMILES	Percent Effect
Cc1ccc(NC(=O)Cn2ncc(SCC(N)=O)c(Cl)c2=O)cc1	-12
Cc1nn(C)c(C)c1C1CCCN1CC(=O)Nc1cc(C(C)C)no1 (centres unmarked)	-15.05
O=C(O)C(F)(F)F.O=C(O)C(F)(F)F.[H][C@@]12COC[C@]1(COc1cccnc1)CN(Cc1cccs1)C2	25.6
OC1(CNCCSc2ccccn2)CNCCOC1 (centres unmarked)	-5.128
Cn1nc(CN2CCCCC2)c2c1CN(Cc1ccoc1)C2.O=C(O)C(F)(F)F.O=C(O)C(F)(F)F	-66.67
Cc1oc(-c2nc(C#N)c(NCC(C)C)o2)cc1S(=O)(=O)N1CCCC1	-23.78
Cc1noc(C(C)Nc2ccc3oc(C(C)C)nc3c2)n1 (centres unmarked)	3.037
CC(=O)NCc1noc2c1CN(Cc1ccsc1)CC2	-41.07
CCc1nc(C)c([C@H]2CN(C)C[C@@H]2C(=O)NCc2ccccn2)[nH]1	-15.36
CC(C)c1cc2c(O)nc(CSCC(=O)O)nc2s1	-36.75
O=C(C1CCOC1)N1CCN(Cc2cccnc2)c2ncccc2C1 (centres unmarked)	-4.778
Cc1ccsc1CN(CCN(C)C)C(=O)c1ccccc1C#N	-179.7
O=C1CCc2cc(-c3csc(CCN4CCOC4=O)n3)ccc2N1	19.8
O=C(c1ccc(S(=O)(=O)NCc2ccncc2)cc1)N1CCNCC1	-38.54
c1cnc(Nc2cncc(C3CCCN(c4cnccn4)C3)n2)nc1 (centres unmarked)	5.918
COc1ccc(OC)c(Sc2ncccc2C(=O)NCC2CC2)c1	-41.11
Fc1cccc(C2(CNC3CCOC4(CCOCC4)C3)CCOCC2)c1 (centres unmarked)	-28.84
Cc1ccc(C(=O)N2CCSCC2)cc1N1CCNC1=O	0.579
O=C(CC1CC1)N1CCC2(COCc3cnc(N4CCOCC4)nc32)C1 (centres unmarked)	-358.7
CCCNC(=O)C(C)n1nc(-c2ccc(C)o2)cc(N)c1=O (centres unmarked)	9.448
COCC(=O)N(Cc1ccc2cc[nH]c2c1)C1CC1	-29.89
COc1cccc(OC)c1-c1ccnc2cc(CC(=O)NC3CC3)nn12	-10.81
O=C(C1CCOCC1)N1CCC(O)(Cn2ccc3ccncc32)CC1	6.185
O=C(c1ccccc1)N1CCCC(Nc2ccc(F)cc2)C1 (centres unmarked)	-18.93
[H][C@]12CN(CC(C)(C)C)CCN1C(=O)N(C1CCCCC1)C2	0.3933
Cc1nc2c(c(N3CCC(CCn4cccn4)CC3)n1)CCNCC2	-33.32
CC(C)(C(=O)O)S(=O)(=O)c1ccc(Br)cc1	10.41
CCCc1nc2c(c(C)c(C)n2Cc2cccnc2)c(N)c1CC	26.57
CC(C)c1nnc(CN2CCCC(Cn3cncn3)C2)o1 (centres unmarked)	3.428
O=C(c1n[nH]c(=O)c2ccccc12)N1CCCCC1c1ccn[nH]1 (centres unmarked)	14.12
O=S(=O)(c1cccc(Cl)c1)N1CCCC(Cn2cncn2)C1 (centres unmarked)	-14.53
CC(=O)c1ccc(C(=O)NCC2Cc3ccccc3O2)s1 (centres unmarked)	-52.82
CC[C@@]1(O)CCN(c2ncc(Cl)cc2F)C[C@H]1O	-8.94
Cc1cccc(Nc2noc3c2CN(C(=O)c2ccn(C)n2)CC3)c1C	-0.6675
Nc1ccnc(N2C[C@H](O)[C@@H](N3CCN(c4ccccn4)CC3)C2)n1	-20.92
Cc1cc(C(=O)O)cc(S(=O)(=O)Nc2ccc3c(c2)OCCCO3)c1C	2.171
Cc1cc(CNC(=O)c2cn(CCC3CCCCN3)nn2)on1 (centres unmarked)	-25.88
O=C(O)C(F)(F)F.[H][C@@]12CCCO[C@]1([H])[C@@H](NC(=O)c1cnn(C)c1)CN2Cc1nccs1	8.261
Cc1cc(N2CCC(N(C)C(=O)c3ccc(C#N)cc3)CC2)nc(C)n1	-51.17
COc1c(CNCc2nnc3n2CCCCC3)c(C(C)C)nn1C.Cl	-21.12
CC(C)CCN1CCc2[nH]nc(C(=O)N3CC=CC3)c2C1.O=C(O)C(F)(F)F.O=C(O)C(F)(F)F	-38.1
FC(F)(F)C1CCCn2c(CNCc3cccs3)nnc21 (centres unmarked)	-13.29
Cc1nc(CN2CCCC(N(C)c3ccc(C#N)cn3)C2)no1 (centres unmarked)	-33.45
Cc1ccc(NC2CCN(C(=O)CCNS(C)(=O)=O)CC2)nn1	-1.75
Cc1nc[nH]c1-c1nccn1CCN1CCOC1=O	-8.363
CN(Cc1cnn(C)c1)C(=O)Cc1ccc2c(c1)OCCO2	-33.71
COC(=O)C(C)NCc1ccc2[nH]c(C)c(C)c2c1 (centres unmarked)	-35.15
O=C(O)C(F)(F)F.O=C(O)C(F)(F)F.O=C(O)C(F)(F)F.[H][C@@]12CO[C@@H](CN(C)Cc3cccnc3)[C@]1([H])CCN(Cc1ccoc1)C2	-112.5
Cc1nn(C)cc1-c1ccnc(N(C)Cc2ccc(F)cc2)n1	2.059
Cc1cccc(CNC(Cn2cncn2)c2ccccc2)c1C (centres unmarked)	-36.7
CC(=O)NCCC(=O)Nc1sccc1C(=O)C(C)(C)C	5.242
O=C(O)C(F)(F)F.O=C(O)C(F)(F)F.[H][C@@]12COC[C@@H](C(=O)Nc3cccnc3)[C@]1([H])CN(C1CCCC1)C2	-9.402
Cc1nc(NC(=O)NCc2cccnc2NCCN(C)C)sc1C	-66.28
CCc1ccc(C2CCCCCN2C(=O)CNC(=O)NC2CC2)o1 (centres unmarked)	-13.61
CC(C)(C)N1CC(C(=O)N2CCN(CCn3cncn3)CC2)CC1=O (centres unmarked)	3.38
CCCNC(c1ccc(F)cc1)c1cccnc1.Cl.Cl (centres unmarked)	-17.83
CC(C)c1cc(C(=O)N2CCc3nc(C4CCCN4)ncc3C2)cs1.Cl (centres unmarked)	-27.95
CC(C)(C)n1cc(CNC2CCN(C(=O)c3ccco3)CC2)cn1	-94.64
CS(=O)(=O)c1ccc(-c2cc(O)cc(CCC3CCCCN3)c2)cc1 (centres unmarked)	10.29
CCNC(=O)[C@@H]1C[C@H](N)CN1c1cc(CC)nc(N(C)C)n1	-24.28
O=C(COCC1CCCO1)N(Cc1cccnc1)c1ccc(F)cc1 (centres unmarked)	-32.68
CC(C)C1CN(S(=O)(=O)Cc2cccc(C#N)c2)CCS1 (centres unmarked)	15.28
CC(=O)N1CCC(c2ccnc(Nc3cncnc3)n2)C1 (centres unmarked)	25.45
CS(=O)(=O)CCOc1nc(-c2ccccc2Cl)no1	-32.84
CCC(C(=O)N1CCN(S(=O)(=O)N2CCCC2)CC1)n1cccn1 (centres unmarked)	-9.589
Cc1cccc(Cn2c(=O)[nH]c3csnc3c2=O)c1	-17.68
Cc1ccc(NC(=O)C2CCCN2C(=O)C2CC2)nc1 (centres unmarked)	4.065
O=C(O)C(F)(F)F.O=C(O)C(F)(F)F.[H][C@]12CCN(C(=O)c3ccncc3)C[C@@]1([H])OCCN(C1CCOCC1)C2	-1.504
COCc1nc(CNc2cccc(-c3ncon3)c2)cs1	-25.16
O=C(O)C(F)(F)F.O=C(O)C(F)(F)F.[H][C@@]12CCN(c3ncc(F)cn3)[C@]1([H])CC[C@@H](C(=O)NCc1ccccn1)O2	-18.98
Cc1ccc(CN2CCCn3c(nc(Cn4cncn4)cc3=O)C2)s1	7.577
COCC(O)CN1CCC(NC(=O)c2cscc2C)CC1 (centres unmarked)	-52.45
O=C(NCc1ccccc1)N1CCC(Oc2ncccc2Br)CC1	-2.239
COc1ccccc1C1(NCc2c(C)nc3c(C)cccn23)CCCC1.Cl	38.52
CCn1c(C)nnc1SCCn1cc(-c2ncc[nH]2)nn1	26.23
Cc1nsc(N2CCCN(c3nc(C4CC4)ns3)CC2)n1	-86.74
Cc1noc(C)c1C(=O)NCc1ccc(N2CCCCCC2)nc1	20.09

The last 8 entries again:

SMILES	Percent Effect
O=C(O)C(F)(F)F.O=C(O)C(F)(F)F.[H][C@@]12CCN(c3ncc(F)cn3)[C@]1([H])CC[C@@H](C(=O)NCc1ccccn1)O2	-18.98
Cc1ccc(CN2CCCn3c(nc(Cn4cncn4)cc3=O)C2)s1	7.577
COCC(O)CN1CCC(NC(=O)c2cscc2C)CC1 (centres unmarked)	-52.45
O=C(NCc1ccccc1)N1CCC(Oc2ncccc2Br)CC1	-2.239
COc1ccccc1C1(NCc2c(C)nc3c(C)cccn23)CCCC1.Cl	38.52
CCn1c(C)nnc1SCCn1cc(-c2ncc[nH]2)nn1	26.23
Cc1nsc(N2CCCN(c3nc(C4CC4)ns3)CC2)n1	-86.74
Cc1noc(C)c1C(=O)NCc1ccc(N2CCCCCC2)nc1	20.09